# This is one part of the list.
# Columns and labels:
# Assay in all cases: glycan array binding signal (z-score within array); higher = stronger binding
# Conditions in all cases: glycan notation: IUPAC condensed, linker removed
# [1] = target: Neu5Ac(a2-3)Gal(b1-3)GlcNAc6S
# Outline: (§1)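 Arrays were curated from the Consortium for Functional Glycomics database, 3228 in total, and kept only where the protein sequence was available. Binding is expressed as a within-array Z-score. This score was averaged across arrays of the same protein sequence at different concentrations or buffers and across linkers, and negative values can be read as non-binding.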
# [2] = target: Neu5Ac(a2-3)Gal(b1-3)[Fuc(a1-4)]GlcNAc
# Outline: as §1
# [3] = target: Neu5Ac(a2-3)Gal(b1-3)[Fuc(a1-4)]GlcNAc(b1-3)Gal(b1-3)[Fuc(a1-4)]GlcNAc
# Outline: as §1
# [4] = target: Neu5Ac(a2-3)Gal(b1-3)[Fuc(a1-4)]GlcNAc(b1-3)Gal(b1-4)[Fuc(a1-3)]GlcNAc
# Outline: as §1
# [5] = target: Neu5Ac(a2-3)Gal(b1-3)[GlcNAc(b1-6)]GalNAc
# Outline: as §1
# [6] = target: Neu5Ac(a2-3)Gal(b1-3)[Neu5Ac(a2-6)]GalNAc
# Outline: as §1
# [7] = target: Neu5Ac(a2-3)Gal(b1-3)[Neu5Ac(a2-6)]GlcNAc(b1-3)[Fuc(a1-3)[Gal(b1-4)]GlcNAc(b1-6)]Gal(b1-4)Glc
# Outline: as §1
# [8] = target: Neu5Ac(a2-3)Gal(b1-3)]Neu5Ac(a2-3)Gal(b1-4)]GlcNAc
# Outline: as §1
# Neu5Ac(a2-3)Gal(b1-4)Glc = target: Neu5Ac(a2-3)Gal(b1-4)Glc
# Outline: as §1
# [9] = target: Neu5Ac(a2-3)Gal(b1-4)GlcNAc
# Outline: as §1
# [10] = target: Neu5Ac(a2-3)Gal(b1-4)GlcNAc(b1-2)Man
# Outline: as §1
# [11] = target: Neu5Ac(a2-3)Gal(b1-4)GlcNAc(b1-2)Man(a1-3)[GlcNAc(b1-4)][Neu5Ac(a2-3)Gal(b1-4)GlcNAc(b1-2)Man(a1-6)]Man(b1-4)GlcNAc(b1-4)GlcNAc
# Outline: as §1
# [12] = target: Neu5Ac(a2-3)Gal(b1-4)GlcNAc(b1-2)Man(a1-3)[Neu5Ac(a2-3)Gal(b1-4)GlcNAc(b1-2)Man(a1-6)]Man(b1-4)GlcNAc(b1-4)GlcNAc
# Outline: as §1
# [13] = target: Neu5Ac(a2-3)Gal(b1-4)GlcNAc(b1-2)Man(a1-3)[Neu5Ac(a2-3)Gal(b1-4)GlcNAc(b1-2)Man(a1-6)]Man(b1-4)GlcNAc(b1-4)[Fuc(a1-6)]GlcNAc
# Outline: as §1
# [14] = target: Neu5Ac(a2-3)Gal(b1-4)GlcNAc(b1-2)Man(a1-3)[Neu5Ac(a2-6)Gal(b1-4)GlcNAc(b1-2)Man(a1-6)]Man(b1-4)GlcNAc(b1-4)GlcNAc
# Outline: as §1
# [15] = target: Neu5Ac(a2-3)Gal(b1-4)GlcNAc(b1-2)[Neu5Ac(a2-3)Gal(b1-4)GlcNAc(b1-4)]Man(a1-3)[GlcNAc(b1-4)][Neu5Ac(a2-3)Gal(b1-4)GlcNAc(b1-2)[Neu5Ac(a2-3)Gal(b1-4)GlcNAc(b1-6)]Man(a1-6)]Man(b1-4)GlcNAc(b1-4)GlcNAc
# Outline: as §1
# [16] = target: Neu5Ac(a2-3)Gal(b1-4)GlcNAc(b1-2)[Neu5Ac(a2-3)Gal(b1-4)GlcNAc(b1-4)]Man(a1-3)[GlcNAc(b1-4)][Neu5Ac(a2-3)Gal(b1-4)GlcNAc(b1-4)Man(a1-6)]Man(b1-4)GlcNAc(b1-4)GlcNAc
# Outline: as §1
# [17] = target: Neu5Ac(a2-3)Gal(b1-4)GlcNAc(b1-2)[Neu5Ac(a2-3)Gal(b1-4)GlcNAc(b1-6)]Man(a1-6)[Neu5Ac(a2-3)Gal(b1-4)GlcNAc(b1-2)Man(a1-3)][GlcNAc(b1-4)]Man(b1-4)GlcNAc(b1-4)GlcNAc
# Outline: as §1
# [18] = target: Neu5Ac(a2-3)Gal(b1-4)GlcNAc(b1-3)Gal
# Outline: as §1
# [19] = target: Neu5Ac(a2-3)Gal(b1-4)GlcNAc(b1-3)Gal(b1-3)GlcNAc
# Outline: as §1
# [20] = target: Neu5Ac(a2-3)Gal(b1-4)GlcNAc(b1-3)Gal(b1-4)GlcNAc
# Outline: as §1
# [21] = target: Neu5Ac(a2-3)Gal(b1-4)GlcNAc(b1-3)Gal(b1-4)GlcNAc(b1-2)Man(a1-3)[Neu5Ac(a2-3)Gal(b1-4)GlcNAc(b1-3)Gal(b1-4)GlcNAc(b1-2)Man(a1-6)]Man(b1-4)GlcNAc(b1-4)GlcNAc
# Outline: as §1
# [22] = target: Neu5Ac(a2-3)Gal(b1-4)GlcNAc(b1-3)Gal(b1-4)GlcNAc(b1-3)Gal(b1-4)GlcNAc
# Outline: as §1
# [23] = target: Neu5Ac(a2-3)Gal(b1-4)GlcNAc(b1-3)Gal(b1-4)GlcNAc(b1-3)Gal(b1-4)GlcNAc(b1-2)Man(a1-3)[Neu5Ac(a2-3)Gal(b1-4)GlcNAc(b1-3)Gal(b1-4)GlcNAc(b1-3)Gal(b1-4)GlcNAc(b1-2)Man(a1-6)]GalNAc
# Outline: as §1
# [24] = target: Neu5Ac(a2-3)Gal(b1-4)GlcNAc(b1-3)Gal(b1-4)GlcNAc(b1-3)GalNAc
# Outline: as §1
# [25] = target: Neu5Ac(a2-3)Gal(b1-4)GlcNAc(b1-3)Gal(b1-4)GlcNAc(b1-3)[Neu5Ac(a2-3)Gal(b1-4)GlcNAc(b1-3)Gal(b1-4)GlcNAc(b1-6)]GalNAc
# Outline: as §1
# [26] = target: Neu5Ac(a2-3)Gal(b1-4)GlcNAc(b1-3)Gal(b1-4)GlcNAc(b1-6)[Gal(b1-3)]GalNAc
# Outline: as §1
# [27] = target: Neu5Ac(a2-3)Gal(b1-4)GlcNAc(b1-3)Gal(b1-4)[Fuc(a1-3)]GlcNAc
# Outline: as §1
# [28] = target: Neu5Ac(a2-3)Gal(b1-4)GlcNAc(b1-3)GalNAc
# Outline: as §1
# [29] = target: Neu5Ac(a2-3)Gal(b1-4)GlcNAc(b1-3)[Neu5Ac(a2-3)Gal(b1-4)GlcNAc(b1-6)]GalNAc
# Outline: as §1
binder,measurement,setting,value
Clec39 (Caenorhabditis elegans) (protein) MTSFYDNSSSSSKPVPLKTSRAQKIQILIFDNWKLILYGAISTLILVLAIMFSTLFFALPAANCDENSEPTKYYTTNAEITTTITTTNQKTTSTASSHLTTISSSATQIYSESSSSSTSQSTFTQSPPEISTTTIAPSDFSCQHGFTLVNNKCWKLVTSNQARPDADKICNGYGGATLFSIKSEQDNRAMIHFVKGQDIDFLWSGLLCSAGEPISCIWDIENGSTANYSNFADGFPNIVYGNCVYFITSGDEAGQWGNEQCGQVMNFVCELPATFQGKDGCKNNYEKSCYLRFDLNLTVPQAQNFCLEKCANLVSIHSANEVRFIMTIYDFIGEILIGALAPAQDFIYWLDGTPANYNNLKFFYNSTCVHMTVAPGMQNVGKWFTRFCTETGKFLCKRSIKNSCT,glycan array binding signal (z-score),[1],-0.224
same,glycan array binding signal (z-score),[2],1.01
same,glycan array binding signal (z-score),[3],-0.873
same,glycan array binding signal (z-score),[4],1.35
same,glycan array binding signal (z-score),[5],-0.413
same,glycan array binding signal (z-score),[6],-0.738
same,glycan array binding signal (z-score),[7],0.882
same,glycan array binding signal (z-score),[8],0.728
same,glycan array binding signal (z-score),Neu5Ac(a2-3)Gal(b1-4)Glc,0.745
same,glycan array binding signal (z-score),[9],-0.853
same,glycan array binding signal (z-score),[10],0.524
same,glycan array binding signal (z-score),[11],1.43
same,glycan array binding signal (z-score),[12],-0.756
same,glycan array binding signal (z-score),[13],-0.137
same,glycan array binding signal (z-score),[14],2.22
same,glycan array binding signal (z-score),[15],0.721
same,glycan array binding signal (z-score),[16],0.098
same,glycan array binding signal (z-score),[17],0.185
same,glycan array binding signal (z-score),[18],-0.762
same,glycan array binding signal (z-score),[19],-0.058
same,glycan array binding signal (z-score),[20],-0.74
same,glycan array binding signal (z-score),[21],1.74
same,glycan array binding signal (z-score),[22],-0.416
same,glycan array binding signal (z-score),[23],0.509
same,glycan array binding signal (z-score),[24],-0.485
same,glycan array binding signal (z-score),[25],-0.101
same,glycan array binding signal (z-score),[26],-0.438
same,glycan array binding signal (z-score),[27],-1.5
same,glycan array binding signal (z-score),[28],1.61
same,glycan array binding signal (z-score),[29],1.14

# As a working copy, some entries already given.
binder,measurement,setting,value
Clec39 (Caenorhabditis elegans) (protein) MTSFYDNSSSSSKPVPLKTSRAQKIQILIFDNWKLILYGAISTLILVLAIMFSTLFFALPAANCDENSEPTKYYTTNAEITTTITTTNQKTTSTASSHLTTISSSATQIYSESSSSSTSQSTFTQSPPEISTTTIAPSDFSCQHGFTLVNNKCWKLVTSNQARPDADKICNGYGGATLFSIKSEQDNRAMIHFVKGQDIDFLWSGLLCSAGEPISCIWDIENGSTANYSNFADGFPNIVYGNCVYFITSGDEAGQWGNEQCGQVMNFVCELPATFQGKDGCKNNYEKSCYLRFDLNLTVPQAQNFCLEKCANLVSIHSANEVRFIMTIYDFIGEILIGALAPAQDFIYWLDGTPANYNNLKFFYNSTCVHMTVAPGMQNVGKWFTRFCTETGKFLCKRSIKNSCT,glycan array binding signal (z-score),[2],1.01
same,glycan array binding signal (z-score),[3],-0.873

# Source: the supplement of paper PMC8728848
